For 63 targets, melting temperature shift results are on record in the supplement of paper PMC12595434, “Development of retinoid nuclear receptor pathway antagonists through targeting aldehyde dehydrogenase 1A3” (iScience, 2025).

Protein sequences, listed by entry. Tags and fused reporters are not part of them. Lines headed by an entry give the natural chain unless they say otherwise; changes in a name come on top.
UniProt Q9H8W3: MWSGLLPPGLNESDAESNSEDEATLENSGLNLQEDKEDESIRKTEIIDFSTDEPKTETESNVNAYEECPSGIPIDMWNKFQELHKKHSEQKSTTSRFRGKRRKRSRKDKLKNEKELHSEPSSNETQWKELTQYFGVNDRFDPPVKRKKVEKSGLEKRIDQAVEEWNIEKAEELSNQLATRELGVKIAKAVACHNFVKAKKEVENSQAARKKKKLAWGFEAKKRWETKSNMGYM
UniProt Q9HB09: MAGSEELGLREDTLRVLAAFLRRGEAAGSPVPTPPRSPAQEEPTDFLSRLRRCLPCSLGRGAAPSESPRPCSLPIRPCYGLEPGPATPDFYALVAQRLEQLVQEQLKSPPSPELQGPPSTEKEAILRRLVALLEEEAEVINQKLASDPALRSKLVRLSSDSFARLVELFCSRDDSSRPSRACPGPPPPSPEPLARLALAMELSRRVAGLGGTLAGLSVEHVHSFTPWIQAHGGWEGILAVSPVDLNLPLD
UniProt Q9HB20: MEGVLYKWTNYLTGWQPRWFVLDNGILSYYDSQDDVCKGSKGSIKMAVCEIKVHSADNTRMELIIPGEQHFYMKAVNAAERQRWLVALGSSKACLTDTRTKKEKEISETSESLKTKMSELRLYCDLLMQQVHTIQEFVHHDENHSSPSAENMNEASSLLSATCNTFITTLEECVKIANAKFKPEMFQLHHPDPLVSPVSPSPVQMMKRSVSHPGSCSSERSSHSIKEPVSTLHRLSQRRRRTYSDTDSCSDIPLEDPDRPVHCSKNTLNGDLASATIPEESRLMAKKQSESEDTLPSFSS
UniProt Q9NRG4: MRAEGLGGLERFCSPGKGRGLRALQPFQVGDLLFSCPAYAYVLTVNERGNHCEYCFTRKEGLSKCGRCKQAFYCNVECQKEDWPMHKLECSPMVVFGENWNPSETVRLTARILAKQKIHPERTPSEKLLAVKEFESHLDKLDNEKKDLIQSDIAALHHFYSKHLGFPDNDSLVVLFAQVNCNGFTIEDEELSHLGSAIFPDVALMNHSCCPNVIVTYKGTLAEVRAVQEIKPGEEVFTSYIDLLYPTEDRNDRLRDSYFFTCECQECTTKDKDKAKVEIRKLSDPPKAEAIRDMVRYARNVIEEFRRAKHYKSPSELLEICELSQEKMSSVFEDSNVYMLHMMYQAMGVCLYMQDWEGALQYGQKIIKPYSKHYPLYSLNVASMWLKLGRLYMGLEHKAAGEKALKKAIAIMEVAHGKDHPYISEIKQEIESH
UniProt Q9HCH5: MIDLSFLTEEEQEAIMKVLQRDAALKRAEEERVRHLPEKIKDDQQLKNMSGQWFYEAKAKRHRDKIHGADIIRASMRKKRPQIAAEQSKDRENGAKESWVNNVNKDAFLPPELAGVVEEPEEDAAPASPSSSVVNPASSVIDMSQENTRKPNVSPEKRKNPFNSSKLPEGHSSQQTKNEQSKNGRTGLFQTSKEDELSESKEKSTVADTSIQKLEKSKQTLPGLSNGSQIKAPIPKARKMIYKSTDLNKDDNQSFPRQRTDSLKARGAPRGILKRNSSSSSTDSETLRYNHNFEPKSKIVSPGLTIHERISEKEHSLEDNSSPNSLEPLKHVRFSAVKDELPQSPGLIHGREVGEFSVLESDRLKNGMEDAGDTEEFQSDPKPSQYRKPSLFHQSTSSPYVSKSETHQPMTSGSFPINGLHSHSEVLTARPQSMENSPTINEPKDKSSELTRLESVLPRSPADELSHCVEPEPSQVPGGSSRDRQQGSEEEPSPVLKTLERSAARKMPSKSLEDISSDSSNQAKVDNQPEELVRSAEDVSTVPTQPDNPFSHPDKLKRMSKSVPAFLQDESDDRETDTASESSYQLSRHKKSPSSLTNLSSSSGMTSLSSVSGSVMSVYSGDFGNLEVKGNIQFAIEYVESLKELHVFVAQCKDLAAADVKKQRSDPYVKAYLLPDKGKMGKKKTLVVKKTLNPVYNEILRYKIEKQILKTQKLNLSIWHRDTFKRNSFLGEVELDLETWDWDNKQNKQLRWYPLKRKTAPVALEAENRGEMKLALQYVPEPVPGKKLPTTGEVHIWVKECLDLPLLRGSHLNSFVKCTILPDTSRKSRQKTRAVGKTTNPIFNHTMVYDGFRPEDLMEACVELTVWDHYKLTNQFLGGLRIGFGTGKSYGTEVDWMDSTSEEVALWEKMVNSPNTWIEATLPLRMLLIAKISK
UniProt Q9NQC8: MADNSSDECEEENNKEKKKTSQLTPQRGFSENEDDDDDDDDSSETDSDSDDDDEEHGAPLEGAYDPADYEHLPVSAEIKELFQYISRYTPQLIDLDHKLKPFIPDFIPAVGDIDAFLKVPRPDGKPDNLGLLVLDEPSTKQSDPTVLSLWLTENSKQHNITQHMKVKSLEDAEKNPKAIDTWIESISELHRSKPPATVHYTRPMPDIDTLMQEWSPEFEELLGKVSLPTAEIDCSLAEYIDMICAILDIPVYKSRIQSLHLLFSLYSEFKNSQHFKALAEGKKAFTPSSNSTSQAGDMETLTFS
UniProt Q9HCH3: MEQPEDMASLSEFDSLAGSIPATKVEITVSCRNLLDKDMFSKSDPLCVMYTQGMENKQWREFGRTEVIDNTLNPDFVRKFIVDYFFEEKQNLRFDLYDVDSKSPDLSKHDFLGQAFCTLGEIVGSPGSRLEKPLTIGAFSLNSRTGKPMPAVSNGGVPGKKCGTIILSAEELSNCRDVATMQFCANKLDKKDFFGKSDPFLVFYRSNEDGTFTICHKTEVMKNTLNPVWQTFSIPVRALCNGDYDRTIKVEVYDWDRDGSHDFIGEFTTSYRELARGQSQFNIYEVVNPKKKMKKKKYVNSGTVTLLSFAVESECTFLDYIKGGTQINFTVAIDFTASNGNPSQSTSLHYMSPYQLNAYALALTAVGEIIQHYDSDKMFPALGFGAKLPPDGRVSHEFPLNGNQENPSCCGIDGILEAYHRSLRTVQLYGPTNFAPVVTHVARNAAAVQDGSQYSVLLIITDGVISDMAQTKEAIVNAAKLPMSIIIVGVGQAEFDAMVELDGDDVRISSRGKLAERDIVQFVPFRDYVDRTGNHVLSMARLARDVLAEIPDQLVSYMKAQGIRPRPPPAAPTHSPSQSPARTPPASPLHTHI
UniProt Q9HCE0: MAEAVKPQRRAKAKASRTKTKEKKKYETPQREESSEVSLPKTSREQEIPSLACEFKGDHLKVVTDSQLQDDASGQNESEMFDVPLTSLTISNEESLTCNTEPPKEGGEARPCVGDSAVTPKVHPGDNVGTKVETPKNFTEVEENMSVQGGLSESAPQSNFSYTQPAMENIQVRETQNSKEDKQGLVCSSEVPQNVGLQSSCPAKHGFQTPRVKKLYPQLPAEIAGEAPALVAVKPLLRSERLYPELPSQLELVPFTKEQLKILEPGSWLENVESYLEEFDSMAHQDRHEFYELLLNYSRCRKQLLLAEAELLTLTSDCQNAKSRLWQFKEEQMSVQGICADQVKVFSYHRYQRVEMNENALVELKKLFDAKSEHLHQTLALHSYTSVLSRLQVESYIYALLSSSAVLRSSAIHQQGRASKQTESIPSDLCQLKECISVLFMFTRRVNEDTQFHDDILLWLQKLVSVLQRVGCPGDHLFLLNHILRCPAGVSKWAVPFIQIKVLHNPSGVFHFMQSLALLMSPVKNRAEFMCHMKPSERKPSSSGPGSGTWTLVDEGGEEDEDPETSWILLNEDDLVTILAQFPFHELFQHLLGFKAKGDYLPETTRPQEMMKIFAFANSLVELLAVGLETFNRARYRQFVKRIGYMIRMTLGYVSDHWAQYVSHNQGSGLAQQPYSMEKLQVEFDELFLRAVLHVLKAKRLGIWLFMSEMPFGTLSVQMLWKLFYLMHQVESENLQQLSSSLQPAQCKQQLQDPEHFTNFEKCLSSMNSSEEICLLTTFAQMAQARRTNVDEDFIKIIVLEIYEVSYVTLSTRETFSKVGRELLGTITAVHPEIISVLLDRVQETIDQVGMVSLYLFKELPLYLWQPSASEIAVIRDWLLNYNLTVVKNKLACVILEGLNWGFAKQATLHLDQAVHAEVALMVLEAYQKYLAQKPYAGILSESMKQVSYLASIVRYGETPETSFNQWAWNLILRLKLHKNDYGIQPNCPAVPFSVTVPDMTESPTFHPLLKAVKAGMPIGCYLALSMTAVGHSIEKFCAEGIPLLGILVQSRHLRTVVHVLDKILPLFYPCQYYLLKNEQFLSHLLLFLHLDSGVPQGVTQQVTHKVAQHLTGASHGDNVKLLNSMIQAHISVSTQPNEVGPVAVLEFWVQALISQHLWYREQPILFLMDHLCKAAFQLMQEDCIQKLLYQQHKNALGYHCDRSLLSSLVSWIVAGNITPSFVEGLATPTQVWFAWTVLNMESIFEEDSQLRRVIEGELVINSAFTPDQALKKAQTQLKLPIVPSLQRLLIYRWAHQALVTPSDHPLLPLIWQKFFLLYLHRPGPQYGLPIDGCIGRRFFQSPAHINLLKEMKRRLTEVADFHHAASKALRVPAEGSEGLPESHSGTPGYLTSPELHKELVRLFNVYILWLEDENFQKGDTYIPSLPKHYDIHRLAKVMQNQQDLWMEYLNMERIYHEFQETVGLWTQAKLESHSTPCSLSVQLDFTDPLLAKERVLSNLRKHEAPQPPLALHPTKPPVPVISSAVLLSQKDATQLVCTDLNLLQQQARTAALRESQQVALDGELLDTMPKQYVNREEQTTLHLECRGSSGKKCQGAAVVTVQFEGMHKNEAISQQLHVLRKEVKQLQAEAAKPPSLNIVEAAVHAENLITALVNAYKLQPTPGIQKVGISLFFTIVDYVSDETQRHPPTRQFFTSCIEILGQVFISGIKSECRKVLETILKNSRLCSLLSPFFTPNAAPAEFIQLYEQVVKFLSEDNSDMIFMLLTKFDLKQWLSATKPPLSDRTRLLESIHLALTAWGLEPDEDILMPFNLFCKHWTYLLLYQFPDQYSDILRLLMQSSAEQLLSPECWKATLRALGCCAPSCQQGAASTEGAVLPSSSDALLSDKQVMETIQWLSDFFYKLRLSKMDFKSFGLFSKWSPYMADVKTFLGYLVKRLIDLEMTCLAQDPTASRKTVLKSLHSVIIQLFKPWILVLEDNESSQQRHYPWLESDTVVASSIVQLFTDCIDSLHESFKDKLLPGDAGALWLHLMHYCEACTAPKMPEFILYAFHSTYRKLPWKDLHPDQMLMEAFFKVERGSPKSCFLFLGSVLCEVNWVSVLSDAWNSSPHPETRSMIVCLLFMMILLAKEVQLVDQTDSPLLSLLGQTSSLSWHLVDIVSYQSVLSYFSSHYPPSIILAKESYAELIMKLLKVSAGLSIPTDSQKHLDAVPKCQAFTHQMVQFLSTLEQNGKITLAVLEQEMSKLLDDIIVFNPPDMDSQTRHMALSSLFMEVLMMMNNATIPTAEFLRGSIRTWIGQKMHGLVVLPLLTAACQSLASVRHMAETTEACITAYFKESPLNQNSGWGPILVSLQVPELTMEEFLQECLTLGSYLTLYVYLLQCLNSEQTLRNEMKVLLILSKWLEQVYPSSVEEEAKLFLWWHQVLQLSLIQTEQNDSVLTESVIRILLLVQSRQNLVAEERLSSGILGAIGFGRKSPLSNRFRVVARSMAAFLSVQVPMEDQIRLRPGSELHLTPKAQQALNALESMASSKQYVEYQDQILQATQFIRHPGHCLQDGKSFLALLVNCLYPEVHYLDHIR
UniProt Q9H9T3: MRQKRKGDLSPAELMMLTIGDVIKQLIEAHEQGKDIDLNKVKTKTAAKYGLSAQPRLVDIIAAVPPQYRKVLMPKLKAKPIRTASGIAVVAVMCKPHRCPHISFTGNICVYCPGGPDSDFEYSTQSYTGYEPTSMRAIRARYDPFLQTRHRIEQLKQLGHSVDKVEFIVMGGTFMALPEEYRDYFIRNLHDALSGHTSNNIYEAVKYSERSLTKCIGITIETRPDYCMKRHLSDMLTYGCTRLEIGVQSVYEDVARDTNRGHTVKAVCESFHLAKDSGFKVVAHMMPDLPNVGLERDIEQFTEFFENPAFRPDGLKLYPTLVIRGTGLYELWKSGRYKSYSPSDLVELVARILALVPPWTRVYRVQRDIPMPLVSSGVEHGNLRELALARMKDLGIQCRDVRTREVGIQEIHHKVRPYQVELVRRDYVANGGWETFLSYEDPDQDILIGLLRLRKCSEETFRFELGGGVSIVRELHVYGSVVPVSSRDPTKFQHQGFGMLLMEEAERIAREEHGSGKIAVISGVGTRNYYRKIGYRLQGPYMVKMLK
UniProt Q9NUP1: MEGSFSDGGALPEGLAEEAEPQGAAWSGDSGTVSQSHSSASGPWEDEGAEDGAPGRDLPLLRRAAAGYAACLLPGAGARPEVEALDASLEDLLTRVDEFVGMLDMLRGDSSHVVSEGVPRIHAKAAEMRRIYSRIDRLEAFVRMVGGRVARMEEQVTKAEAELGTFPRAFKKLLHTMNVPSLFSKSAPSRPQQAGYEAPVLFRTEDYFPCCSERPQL
UniProt Q9NPD8: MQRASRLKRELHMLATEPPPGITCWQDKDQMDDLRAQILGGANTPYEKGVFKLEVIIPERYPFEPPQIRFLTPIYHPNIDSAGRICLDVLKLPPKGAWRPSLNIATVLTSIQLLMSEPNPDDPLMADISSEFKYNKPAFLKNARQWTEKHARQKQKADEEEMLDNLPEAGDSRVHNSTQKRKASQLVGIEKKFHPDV

The list shows a part of the results. Single values of this set are uncertain.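 Tm was set to 64 °C where no melting was found, and many curves are irregular.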

Compound in the test: CCc1cnccc1C(=O)Nc1cc2c(cc1F)NC(=O)CC2
Description: melting temperature shift (DMSO Tm minus MBE1-treated Tm) in cellular thermal proteome profiling; higher = less thermal stabilization by MBE1 (negative = stabilized by MBE1). The following applies: A375.

For POLR1B (UniProt Q9H9Y6), the melting temperature shift runs as follows: (MBE1 concentration: 100 nM) -1.21 °C; (MBE1 concentration: 1 uM) -0.0897 °C.

Regarding HOMER3 (UniProt Q9NSC5), the melting temperature shift is, setting by setting: (MBE1 concentration: 100 nM) 1.33 °C; (MBE1 concentration: 1 uM) 0.183 °C.

UniProt Q9H8W3: where the note is “MBE1 concentration: 1 uM”, the melting temperature shift is -4.5 °C.

In the case of OSGEP (UniProt Q9NPF4), the melting temperature shift was -0.653 °C (MBE1 concentration: 100 nM) and -0.391 °C (MBE1 concentration: 1 uM).

For the target DROSHA (UniProt Q9NRR4), the melting temperature shift is -1.53 °C (MBE1 concentration: 100 nM) and -1.53 °C (MBE1 concentration: 1 uM). Consider UniProt Q9NV79, for which the melting temperature shift (MBE1 concentration: 100 nM) is 0.318 °C. As to UniProt Q9HB09, the melting temperature shift (MBE1 concentration: 1 uM) amounted to 0.586 °C. With MRPS30 (UniProt Q9NP92), the melting temperature shift by setting is: (MBE1 concentration: 100 nM) 1.4 °C; (MBE1 concentration: 1 uM) 0.476 °C.

In the case of AGPAT3 (UniProt Q9NRZ7), the melting temperature shift was -0.54 °C (MBE1 concentration: 100 nM) and 0.91 °C (MBE1 concentration: 1 uM). On to NGRN (UniProt Q9NPE2), for which the melting temperature shift (MBE1 concentration: 100 nM) is -2.36 °C and the melting temperature shift (MBE1 concentration: 1 uM) is -0.00611 °C. For SLC25A19 (UniProt Q9HC21), the melting temperature shift (MBE1 concentration: 1 uM) is -2.05 °C. UniProt Q9NRW1: the melting temperature shift (MBE1 concentration: 100 nM) is -0.888 °C and the melting temperature shift (MBE1 concentration: 1 uM) is -2.92 °C.

Regarding NECTIN3 (UniProt Q9NQS3), under “MBE1 concentration: 1 uM”, the melting temperature shift is -2.98 °C. On to FAM49B (UniProt Q9NUQ9), for which the melting temperature shift was -0.423 °C (MBE1 concentration: 100 nM) and -0.194 °C (MBE1 concentration: 1 uM). In the same order, the values of MRPL40 (UniProt Q9NQ50) are 0.44 °C and 0.244 °C. For UniProt Q9NQL2 the same measures were -2.45 °C and -3.82 °C. For UniProt Q9H967 the same measures were -1.78 °C and 0.32 °C. Take NOP10 (UniProt Q9NPE3): the melting temperature shift runs as follows: (MBE1 concentration: 100 nM) -1.7 °C; (MBE1 concentration: 1 uM) -0.0855 °C.

Consider UniProt Q9HB20, for which, for the setting “MBE1 concentration: 1 uM”, the melting temperature shift is -1.81 °C. Turning to SMYD2 (UniProt Q9NRG4), where the note is “MBE1 concentration: 1 uM”, the melting temperature shift stood at 0.993 °C. Turning to LANCL2 (UniProt Q9NS86), the melting temperature shift runs as follows: (MBE1 concentration: 100 nM) -1.84 °C; (MBE1 concentration: 1 uM) -0.065 °C. As to UniProt Q9HCH5, the melting temperature shift (MBE1 concentration: 1 uM) came to 0.476 °C. In the case of UniProt Q9H9B1, the melting temperature shift reads like this: (MBE1 concentration: 100 nM) -1.62 °C; (MBE1 concentration: 1 uM) -0.415 °C. Consider IPPK (UniProt Q9H8X2), for which the melting temperature shift (MBE1 concentration: 100 nM) is -1.39 °C and the melting temperature shift (MBE1 concentration: 1 uM) was -0.391 °C. As for UniProt Q9NPG3, under “MBE1 concentration: 1 uM”, the melting temperature shift is -0.961 °C. As for UniProt Q9NQC8, the melting temperature shift (MBE1 concentration: 100 nM) was -1.08 °C and the melting temperature shift (MBE1 concentration: 1 uM) was determined as 0.346 °C.

For ALG13 (UniProt Q9NP73), the melting temperature shift was -0.114 °C (MBE1 concentration: 100 nM) and -0.959 °C (MBE1 concentration: 1 uM). In the case of IFT122 (UniProt Q9HBG6), the melting temperature shift by setting is: (MBE1 concentration: 100 nM) -1.32 °C; (MBE1 concentration: 1 uM) -0.763 °C. UniProt Q9HCH3: the melting temperature shift (MBE1 concentration: 100 nM) turned out to be 0.385 °C. On the same count and under the same terms, as for UniProt Q9NUL5, the figure is -6.5 °C. UniProt Q9NNX1: the melting temperature shift by setting is: (MBE1 concentration: 100 nM) -1.61 °C; (MBE1 concentration: 1 uM) 0.412 °C.

With UniProt Q9NQ66, the melting temperature shift was determined as 0.11 °C (MBE1 concentration: 100 nM) and 0.0366 °C (MBE1 concentration: 1 uM). In the same order, the values of ACTR8 (UniProt Q9H981) are -0.199 °C and -0.199 °C. In the case of UniProt Q9NU53, the melting temperature shift (MBE1 concentration: 100 nM) is -8.04 °C. Turning to WDR6 (UniProt Q9NNW5), the melting temperature shift stood at 0.256 °C (MBE1 concentration: 100 nM) and 0.263 °C (MBE1 concentration: 1 uM). CHRAC1 (UniProt Q9NRG0): the melting temperature shift (MBE1 concentration: 100 nM) is -0.202 °C.

Take UniProt Q9NVA2: the melting temperature shift (MBE1 concentration: 100 nM) is -1.43 °C and the melting temperature shift (MBE1 concentration: 1 uM) was -1.62 °C.

Consider CLSPN (UniProt Q9HAW4), for which the melting temperature shift (MBE1 concentration: 100 nM) is -1.27 °C and the melting temperature shift (MBE1 concentration: 1 uM) was -0.122 °C. For VPS45 (UniProt Q9NRW7), the melting temperature shift (MBE1 concentration: 100 nM) turned out to be 0.195 °C and the melting temperature shift (MBE1 concentration: 1 uM) is 0.055 °C. For UniProt Q9NQX7 the same measures were -2.42 °C and -1.82 °C. As for PLEKHA5 (UniProt Q9HAU0), the melting temperature shift (MBE1 concentration: 100 nM) is -0.833 °C and the melting temperature shift (MBE1 concentration: 1 uM) was found to be 0.461 °C. In the same order, the values of UQCC1 (UniProt Q9NVA1) are -1.09 °C and 1.37 °C. In the same order, the values of TRMT13 (UniProt Q9NUP7) are 0.627 °C and 0.0488 °C. For the target CNOT10 (UniProt Q9H9A5), the melting temperature shift turned out to be 0.324 °C (MBE1 concentration: 100 nM) and 0.165 °C (MBE1 concentration: 1 uM). For UniProt Q9HCE0 the same measures were -1.19 °C and -0.36 °C. In the same order, the values of GNB4 (UniProt Q9HAV0) are -0.934 °C and -1.24 °C.

As to POLE3 (UniProt Q9NRF9), the melting temperature shift runs as follows: (MBE1 concentration: 100 nM) 0.519 °C; (MBE1 concentration: 1 uM) 0.788 °C. ELP3 (UniProt Q9H9T3): the melting temperature shift turned out to be 0.147 °C (MBE1 concentration: 100 nM) and 1.23 °C (MBE1 concentration: 1 uM). Turning to PANK4 (UniProt Q9NVE7), the melting temperature shift (MBE1 concentration: 100 nM) was -0.484 °C and the melting temperature shift (MBE1 concentration: 1 uM) came out at 0.397 °C.

With BLOC1S4 (UniProt Q9NUP1), the melting temperature shift runs as follows: (MBE1 concentration: 100 nM) 0.429 °C; (MBE1 concentration: 1 uM) 0.773 °C. For XPO5 (UniProt Q9HAV4) the same measures were 0.16 °C and -0.151 °C.

As for UniProt Q9NPF2, the melting temperature shift reads like this: (MBE1 concentration: 100 nM) -3.89 °C; (MBE1 concentration: 1 uM) -0.362 °C. For RIC8A (UniProt Q9NPQ8) the same measures were 0.103 °C and 0.103 °C. For PDRG1 (UniProt Q9NUG6) the same measures were -2.57 °C and 0.907 °C. For GPCPD1 (UniProt Q9NPB8), the melting temperature shift was 0.118 °C (MBE1 concentration: 100 nM) and -0.0518 °C (MBE1 concentration: 1 uM).

For FBXO28 (UniProt Q9NVF7), the melting temperature shift was -0.757 °C (MBE1 concentration: 100 nM) and -0.79 °C (MBE1 concentration: 1 uM).

For UBE2T (UniProt Q9NPD8), the melting temperature shift reads like this: (MBE1 concentration: 100 nM) -0.77 °C; (MBE1 concentration: 1 uM) -0.0366 °C. For UniProt Q9NSB8 the same measures were -2.53 °C and -0.806 °C. For NIT2 (UniProt Q9NQR4) the same measures were -1.05 °C and -0.684 °C. In the same order, the values of BMP2K (UniProt Q9NSY1) are 0.739 °C and 0.183 °C. Turning to LYRM4 (UniProt Q9HD34), the melting temperature shift is 0.349 °C (MBE1 concentration: 100 nM) and -0.168 °C (MBE1 concentration: 1 uM).

With UniProt Q9HBM6, the melting temperature shift was 0.499 °C (MBE1 concentration: 100 nM) and -0.0423 °C (MBE1 concentration: 1 uM). For RRAGC (UniProt Q9HB90), the melting temperature shift (MBE1 concentration: 100 nM) is -4.09 °C and the melting temperature shift (MBE1 concentration: 1 uM) was determined as 0.203 °C.
